Laboratory results taken from patent US20120157482A1, “COMPOUNDS AND METHODS” (priority 2009, published 2012).
Counter-ions that a name gives are not always drawn. Some results were stated once for a whole list of compounds, not compound by compound.

Target: T1, His-MBP-TEV-Full length human TNNI3K (hTNNI3K) (Homo sapiens, UniProt Q59H18)
T1 construct: His-MBP-TEV-Full length human TNNI3K (hTNNI3K); His (N); TEV cleavage site (N); made in house; host or cells: baculovirus system (printed 'Baculokinase system')
T1 sequence (Q59H18 1-835): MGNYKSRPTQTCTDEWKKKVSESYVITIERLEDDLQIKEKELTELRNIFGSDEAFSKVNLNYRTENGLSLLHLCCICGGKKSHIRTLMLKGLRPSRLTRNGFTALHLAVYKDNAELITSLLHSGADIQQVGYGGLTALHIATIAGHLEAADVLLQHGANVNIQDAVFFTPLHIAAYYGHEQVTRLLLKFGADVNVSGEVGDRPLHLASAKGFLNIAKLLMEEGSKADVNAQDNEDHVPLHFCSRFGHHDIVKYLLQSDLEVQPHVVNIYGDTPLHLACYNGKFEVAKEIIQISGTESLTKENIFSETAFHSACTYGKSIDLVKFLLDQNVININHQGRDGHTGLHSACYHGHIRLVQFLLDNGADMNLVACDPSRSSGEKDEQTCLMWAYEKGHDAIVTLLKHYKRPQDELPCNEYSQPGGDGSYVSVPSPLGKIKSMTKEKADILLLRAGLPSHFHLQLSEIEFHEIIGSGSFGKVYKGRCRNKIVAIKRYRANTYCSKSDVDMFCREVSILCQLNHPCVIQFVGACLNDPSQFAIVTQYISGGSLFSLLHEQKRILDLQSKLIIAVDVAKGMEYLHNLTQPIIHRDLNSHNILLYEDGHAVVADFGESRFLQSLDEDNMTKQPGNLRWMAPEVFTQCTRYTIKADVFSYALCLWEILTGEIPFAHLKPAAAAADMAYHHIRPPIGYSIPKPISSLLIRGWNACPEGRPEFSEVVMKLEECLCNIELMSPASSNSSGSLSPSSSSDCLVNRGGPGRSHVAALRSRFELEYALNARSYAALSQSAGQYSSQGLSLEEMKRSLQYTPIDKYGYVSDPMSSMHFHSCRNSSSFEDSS
Test: Fluorescent polarization assay of compound inhibition on hTNNI3K ATP binding (Biological Assay Method I)
Conditions: displacement of fluorescent ligand, mean of a minimum of 2 experiments
Excerpt: Materials: His-MBP-TEV-Full length human TNNI3K (hTNNI3K) was expressed in Baculokinase system and purified from amylase affinity column followed by Superdex200. The fluorescent ligand 5-({[2-({[3-({4-[(5-hydroxy-2-methylphenyl)amino]-2-pyrimidinyl}amino)phenyl]carbonyl}amino)ethyl]amino}carbonyl)-2-(6-hydroxy-3-oxo-3H-xanthen-9-yl)benzoic acid was used. The other buffer components, including MgCl2 (Catalog Number M1028), Bis-Tris (Catalog Number B7535), DTT (Catalog Number D9779) and Chaps (Catalog Number C3023) were purchased from Sigma-Aldrich.
A fluorescent polarization assay was used to determine does response of compound inhibition on hTNNI3K ATP binding. The binding of 5-({[2-({[3-({4-[(5-hydroxy-2-methylphenyl)amino]-2-pyrimidinyl}amino)phenyl]carbonyl}amino)ethyl]amino}carbonyl)-2-(6-hydroxy-3-oxo-3H-xanthen-9-yl)benzoic acid to the hTNNI3K ATP binding pocket results in increase of fluorescent polarization and the displacement of 5-({[2-({[3-({4-[(5-hydroxy-2-methylphenyl)amino]-2-pyrimidinyl}amino)phenyl]carbonyl}amino)ethyl]amino}carbonyl)-2-(6-hydroxy-3-oxo-3H-xanthen-9-yl)benzoic acid by a competitive compound leads to fluorescent polarization decrease.
Solution 1: Ten (10) mL of a 5 nM 5-({[2-({[3-({4-[(5-hydroxy-2-methylphenyl)amino]-2-pyrimidinyl}amino)phenyl]carbonyl}amino)ethyl]amino}carbonyl)-2-(6-hydroxy-3-oxo-3H-xanthen-9-yl)benzoic acid solution (Solution 1) was prepared by mixing 5 μL of 1M DTT and 80 μL of 10% (w/v) Chaps and 5 μL of a 10 μM 5-({[2-({[3-({4-[(5-hydroxy-2-methylphenyl)amino]-2-pyrimidinyl}amino)phenyl]carbonyl}amino) ethyl]amino}carbonyl)-2-(6-hydroxy-3-oxo-3H-xanthen-9-yl)benzoic acid stock solution into 9910 μL buffer (20 mM Tris, 15 mM MgCl2, pH 7.5). (Stock solution: 10 μM solution of 5-({[2-({[3-({4-[(5-hydroxy-2-methylphenyl)amino]-2-pyrimidinyl}amino)phenyl]carbonyl}amino) ethyl]amino}carbonyl)-2-(6-hydroxy-3-oxo-3H-xanthen-9-yl)benzoic acid in 100% DMSO)
Solution 2 was formed by mixing 53.8 μL of 2.6 μM hTNNI3K with a 6946.2 μL aliquot of Solution 1 (the above 5-({[2-({[3-({4-[(5-hydroxy-2-methylphenyl)amino]-2-pyrimidinyl}amino)phenyl]carbonyl}amino)ethyl]amino}carbonyl)-2-(6-hydroxy-3-oxo-3H-xanthen-9-yl)benzoic acid solution) to make up a 7 mL of mixture of hTNNI3K and 5-({[2-({[3-({4-[(5-hydroxy-2-methylphenyl)amino]-2-pyrimidinyl}amino)phenyl]carbonyl}amino)ethyl]amino}carbonyl)-2-(6-hydroxy-3-oxo-3H-xanthen-9-yl)benzoic acid (Solution 2).
Fifty (50) nL of inhibitors in DMSO (or DMSO controls) were stamped into a 384-well low volume Greiner black plate, followed by addition of 5 μL of Solution 1 to column 18 and 5 μL Solution 2 to columns 1-17 and 19-24 of the plate. The plate was then spun at 500 rpm for 30 seconds and incubated at room temperature for 60 minutes. After that, the fluorescent polarization was measured on Analyst (ex/em: 485/530 nm, Dichroic: 505). For dose response experiments, normalized data were fit by ABASE/XC50 and pXC50=(log((b−y)/(y−a)))/d−log(x), where x is the compound concentration and y is the % activity at specified compound concentration, a is the minimum % activity, b is the maximum % activity, and d is the Hill slope.
The pXC50s are averaged to determine a mean value, for a minimum of 2 experiments. […] For instance, the compounds of Example 5 and Example 11 each inhibited hTNNI3K in the above method with a mean pXC50 of 7.6.

| mean pXC50 | SMILES |
| --- | --- |
| greater than 6.0 | CNc1cc(Oc2c(C)cc(NC(=O)Nc3cccc(C(F)(F)F)c3)cc2C)ncn1 [Example 5, N-(3,5-dimethyl-4-{[6-(methylamino)-4-pyrimidinyl]oxy}phenyl)-N′-[3-(trifluoromethyl)phenyl]urea trifluoroacetate] |
| greater than 6.0 | CNc1cc(Oc2c(Cl)cc(NC(=O)Nc3cccc(C(F)(F)F)c3)cc2Br)ncn1 [Example 3, N-(3-bromo-5-chloro-4-{[6-(methylamino)-4-pyrimidinyl]oxy}phenyl)-N′-[3-(trifluoromethyl)phenyl]urea trifluoroacetate] |
| greater than 6.0 | CNc1cc(Oc2c(F)cc(NC(=O)Nc3cccc(C(F)(F)F)c3)cc2F)ncn1 [Example 4, N-(3,5-difluoro-4-{[6-(methylamino)-4-pyrimidinyl]oxy}phenyl)-N′-[3-(trifluoromethyl)phenyl]urea] |
| greater than 6.0 | CNc1cc(Oc2c(C)cc(NC(=O)Nc3cccc(C(F)(F)F)c3)cc2Cl)ncn1 [Example 12, N-(3-chloro-5-methyl-4-{[6-(methylamino)-4-pyrimidinyl]oxy}phenyl)-N′-[3-(trifluoromethyl)phenyl]urea trifluoroacetate] |
| greater than 6.0 | CNc1cc(Oc2ccc(NC(=O)Nc3cccc(C(F)(F)F)c3)cc2F)ncn1 [Example 11, N-(3-fluoro-4-{[6-(methylamino)-4-pyrimidinyl]oxy}phenyl)-N′-[3-(trifluoromethyl)phenyl]urea trifluoroacetate] |
| greater than 6.0 | CNc1cc(Oc2c(Br)cc(NC(=O)Nc3cccc(C(F)(F)F)c3)cc2OC)ncn1 [Example 6, N-[3-bromo-4-{[6-(methylamino)-4-pyrimidinyl]oxy}-5-(methyloxy)phenyl]-N′-[3-(trifluoromethyl)phenyl]urea trifluoroacetate] |
| greater than 6.0 | CNc1cc(Oc2c(Br)cc(NC(=O)Nc3cccc(C(F)(F)F)c3)cc2Br)ncn1 [Example 2, N-(3,5-dibromo-4-{[6-(methylamino)-4-pyrimidinyl]oxy}phenyl)-N′-[3-(trifluoromethyl)phenyl]urea] |

The next lines start with the compound.

| SMILES | mean pXC50 |
| --- | --- |
| CNc1cc(Oc2c(Cl)cc(NC(=O)Nc3cccc(C(F)(F)F)c3)cc2OC(F)(F)F)ncn1 [Example 14, N-(3-chloro-4-{[6-(methylamino)-4-pyrimidinyl]oxy}-5-(trifluoromethyloxy)phenyl)-N′-[3-(trifluoromethyl)phenyl]urea trifluoroacetate] | greater than 6.0 |
| CNc1cc(Oc2c(Cl)cc(NC(=O)Nc3cccc(C(F)(F)F)c3)cc2OC)ncn1 [Example 10, N-[3-chloro-4-{[6-(methylamino)-4-pyrimidinyl]oxy}-5-(methyloxy)phenyl]-N′-[3-(trifluoromethyl)phenyl]urea trifluoroacetate] | greater than 6.0 |
| CNc1cc(Oc2ccc(NC(=O)Nc3cccc(C(F)(F)F)c3)cc2Cl)ncn1 [Example 7, N-(3-chloro-4-{[6-(methylamino)-4-pyrimidinyl]oxy}phenyl)-N′-[3-(trifluoromethyl)phenyl]urea] | greater than 6.0 |
| CNc1cc(Oc2ccc(NC(=O)Nc3cccc(C(F)(F)F)c3)cc2Br)ncn1 [Example 8, N-(3-bromo-4-{[6-(methylamino)-4-pyrimidinyl]oxy}phenyl)-N′-[3-(trifluoromethyl)phenyl]urea trifluoroacetate] | greater than 6.0 |
| CNc1cc(Oc2ccc(NC(=O)Nc3cccc(C(F)(F)F)c3)cc2OC)ncn1 [Example 9, N-[4-{[6-(methylamino)-4-pyrimidinyl]oxy}-3-(methyloxy)phenyl]-N′-[3-(trifluoromethyl)phenyl]urea trifluoroacetate] | greater than 6.0 |
| CCc1cc(NC(=O)Nc2cccc(C(F)(F)F)c2)cc(Cl)c1Oc1cc(NC)ncn1 [Example 13, N-(3-chloro-5-ethyl-4-{[6-(methylamino)-4-pyrimidinyl]oxy}phenyl)-N′-[3-(trifluoromethyl)phenyl]urea trifluoroacetate] | greater than 6.0 |
